Source: the supplement of paper PMC10849652
The list shows a part of the results.

Amino acid sequences for entries named in this document (tags omitted). A change or cut given only in a name is not applied to a line headed by its entry.
UniProt P33316: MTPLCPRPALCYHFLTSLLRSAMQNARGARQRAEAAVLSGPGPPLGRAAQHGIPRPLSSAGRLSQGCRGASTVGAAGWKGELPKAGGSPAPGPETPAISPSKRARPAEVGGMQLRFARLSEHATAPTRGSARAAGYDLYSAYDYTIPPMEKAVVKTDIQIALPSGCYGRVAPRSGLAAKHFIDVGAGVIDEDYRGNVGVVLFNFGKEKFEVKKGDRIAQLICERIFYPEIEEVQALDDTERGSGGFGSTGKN
UniProt O43598: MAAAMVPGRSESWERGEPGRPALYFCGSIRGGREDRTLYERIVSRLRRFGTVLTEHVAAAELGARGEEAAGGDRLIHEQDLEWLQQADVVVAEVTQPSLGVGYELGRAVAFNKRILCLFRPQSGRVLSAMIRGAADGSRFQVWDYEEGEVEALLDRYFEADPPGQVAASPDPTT
UniProt Q9H3H5: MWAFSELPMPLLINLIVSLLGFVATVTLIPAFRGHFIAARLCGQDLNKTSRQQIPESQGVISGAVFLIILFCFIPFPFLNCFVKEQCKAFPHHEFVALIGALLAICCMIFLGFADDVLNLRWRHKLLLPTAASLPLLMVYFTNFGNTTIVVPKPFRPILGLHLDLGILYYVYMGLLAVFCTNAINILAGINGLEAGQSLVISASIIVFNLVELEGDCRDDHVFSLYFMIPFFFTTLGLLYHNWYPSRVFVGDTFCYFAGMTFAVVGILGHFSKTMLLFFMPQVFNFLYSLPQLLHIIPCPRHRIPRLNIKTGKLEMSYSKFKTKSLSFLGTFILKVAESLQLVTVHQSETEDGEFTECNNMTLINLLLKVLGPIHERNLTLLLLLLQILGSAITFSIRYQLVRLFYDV
UniProt Q86TI2: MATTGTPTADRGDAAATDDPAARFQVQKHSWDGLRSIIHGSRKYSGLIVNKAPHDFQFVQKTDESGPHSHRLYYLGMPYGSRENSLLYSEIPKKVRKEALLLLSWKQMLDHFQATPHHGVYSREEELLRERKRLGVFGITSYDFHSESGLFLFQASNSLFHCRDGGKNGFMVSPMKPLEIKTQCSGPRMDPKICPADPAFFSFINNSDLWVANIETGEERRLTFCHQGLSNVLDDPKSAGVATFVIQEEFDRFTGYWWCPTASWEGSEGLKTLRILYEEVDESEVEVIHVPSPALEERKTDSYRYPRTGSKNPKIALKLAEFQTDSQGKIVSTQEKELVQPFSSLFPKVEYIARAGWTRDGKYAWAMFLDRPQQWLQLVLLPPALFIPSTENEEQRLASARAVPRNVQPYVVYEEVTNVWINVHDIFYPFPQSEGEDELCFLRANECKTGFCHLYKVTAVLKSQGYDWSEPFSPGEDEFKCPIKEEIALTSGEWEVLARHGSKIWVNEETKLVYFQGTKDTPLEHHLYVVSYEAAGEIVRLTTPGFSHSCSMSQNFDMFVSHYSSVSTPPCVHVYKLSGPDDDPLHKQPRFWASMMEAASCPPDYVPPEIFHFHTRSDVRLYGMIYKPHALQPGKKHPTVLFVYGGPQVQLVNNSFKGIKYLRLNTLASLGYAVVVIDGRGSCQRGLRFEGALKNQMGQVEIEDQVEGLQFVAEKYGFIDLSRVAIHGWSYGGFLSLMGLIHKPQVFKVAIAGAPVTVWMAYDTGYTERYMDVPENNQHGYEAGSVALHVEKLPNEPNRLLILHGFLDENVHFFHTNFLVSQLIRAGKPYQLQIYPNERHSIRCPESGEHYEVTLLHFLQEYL
UniProt Q7L8W6: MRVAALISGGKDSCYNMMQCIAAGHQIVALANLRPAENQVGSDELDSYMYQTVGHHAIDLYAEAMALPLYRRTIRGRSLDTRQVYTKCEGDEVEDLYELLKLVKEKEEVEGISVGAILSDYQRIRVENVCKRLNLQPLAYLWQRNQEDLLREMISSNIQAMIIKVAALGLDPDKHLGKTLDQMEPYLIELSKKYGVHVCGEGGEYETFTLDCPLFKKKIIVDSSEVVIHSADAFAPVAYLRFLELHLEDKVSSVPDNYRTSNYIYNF
UniProt Q8WXX5: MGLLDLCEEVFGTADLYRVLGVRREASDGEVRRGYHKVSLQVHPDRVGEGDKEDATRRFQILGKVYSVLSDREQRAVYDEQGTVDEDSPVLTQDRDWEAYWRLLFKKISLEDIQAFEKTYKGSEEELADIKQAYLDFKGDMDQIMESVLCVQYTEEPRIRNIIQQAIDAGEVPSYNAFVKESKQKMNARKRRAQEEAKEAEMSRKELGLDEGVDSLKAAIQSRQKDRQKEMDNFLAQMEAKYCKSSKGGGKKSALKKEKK
UniProt Q99543: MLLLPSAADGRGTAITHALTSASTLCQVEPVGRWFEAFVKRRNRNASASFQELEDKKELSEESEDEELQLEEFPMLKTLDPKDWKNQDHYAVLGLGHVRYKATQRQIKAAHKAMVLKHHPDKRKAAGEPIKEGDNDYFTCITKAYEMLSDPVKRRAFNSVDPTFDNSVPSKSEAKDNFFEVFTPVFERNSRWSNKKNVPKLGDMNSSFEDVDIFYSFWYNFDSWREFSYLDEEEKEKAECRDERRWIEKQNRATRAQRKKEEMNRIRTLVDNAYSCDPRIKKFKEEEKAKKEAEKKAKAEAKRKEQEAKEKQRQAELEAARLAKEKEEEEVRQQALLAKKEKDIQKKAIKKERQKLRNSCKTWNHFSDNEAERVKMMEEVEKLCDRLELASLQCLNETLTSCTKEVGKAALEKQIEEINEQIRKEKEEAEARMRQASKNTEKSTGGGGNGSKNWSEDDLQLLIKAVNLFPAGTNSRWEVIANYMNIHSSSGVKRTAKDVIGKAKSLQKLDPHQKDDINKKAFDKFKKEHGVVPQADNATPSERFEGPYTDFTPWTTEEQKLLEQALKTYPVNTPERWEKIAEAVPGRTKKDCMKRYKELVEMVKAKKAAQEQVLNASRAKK
UniProt Q9UDY4: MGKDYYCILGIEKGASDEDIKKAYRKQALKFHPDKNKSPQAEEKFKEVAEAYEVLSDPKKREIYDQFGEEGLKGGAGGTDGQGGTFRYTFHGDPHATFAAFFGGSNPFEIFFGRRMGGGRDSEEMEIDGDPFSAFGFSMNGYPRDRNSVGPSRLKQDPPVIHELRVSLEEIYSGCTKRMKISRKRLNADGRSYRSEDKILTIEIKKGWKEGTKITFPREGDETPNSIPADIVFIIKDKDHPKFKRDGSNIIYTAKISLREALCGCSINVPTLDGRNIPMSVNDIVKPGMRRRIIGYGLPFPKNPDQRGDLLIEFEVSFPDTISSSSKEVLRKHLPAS
UniProt Q9NTX5: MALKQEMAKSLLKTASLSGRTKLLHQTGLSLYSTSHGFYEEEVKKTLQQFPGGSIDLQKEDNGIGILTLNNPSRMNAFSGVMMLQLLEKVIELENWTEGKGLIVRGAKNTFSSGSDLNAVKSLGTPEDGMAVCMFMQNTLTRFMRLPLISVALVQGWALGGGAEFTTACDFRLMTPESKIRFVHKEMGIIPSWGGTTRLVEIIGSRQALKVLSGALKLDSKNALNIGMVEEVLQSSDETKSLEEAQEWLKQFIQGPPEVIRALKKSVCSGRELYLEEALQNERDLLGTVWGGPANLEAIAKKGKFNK
UniProt Q8TEA8: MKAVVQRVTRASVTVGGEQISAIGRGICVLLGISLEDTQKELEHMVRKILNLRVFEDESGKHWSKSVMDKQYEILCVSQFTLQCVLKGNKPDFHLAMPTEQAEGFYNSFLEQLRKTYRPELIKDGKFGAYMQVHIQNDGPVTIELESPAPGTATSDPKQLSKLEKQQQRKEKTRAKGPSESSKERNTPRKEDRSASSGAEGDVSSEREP
UniProt Q01658: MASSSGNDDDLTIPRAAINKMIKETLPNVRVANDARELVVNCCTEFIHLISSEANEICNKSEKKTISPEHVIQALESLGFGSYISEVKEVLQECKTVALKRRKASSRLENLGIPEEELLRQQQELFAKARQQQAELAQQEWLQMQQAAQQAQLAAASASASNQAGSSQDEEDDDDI
UniProt Q9C005, whole entry, looked up: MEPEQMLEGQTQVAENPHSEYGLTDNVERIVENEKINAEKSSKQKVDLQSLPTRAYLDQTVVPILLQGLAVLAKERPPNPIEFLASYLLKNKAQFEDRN
UniProt O75190: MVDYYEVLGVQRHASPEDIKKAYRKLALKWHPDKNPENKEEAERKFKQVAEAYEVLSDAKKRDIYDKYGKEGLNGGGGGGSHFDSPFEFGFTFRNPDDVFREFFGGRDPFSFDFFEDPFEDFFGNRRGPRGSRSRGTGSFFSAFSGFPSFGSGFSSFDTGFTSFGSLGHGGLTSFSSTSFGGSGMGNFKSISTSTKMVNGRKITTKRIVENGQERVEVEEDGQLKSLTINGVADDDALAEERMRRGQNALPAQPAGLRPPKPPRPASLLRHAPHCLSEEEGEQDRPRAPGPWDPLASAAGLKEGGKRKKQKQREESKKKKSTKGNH
UniProt Q9BZ29: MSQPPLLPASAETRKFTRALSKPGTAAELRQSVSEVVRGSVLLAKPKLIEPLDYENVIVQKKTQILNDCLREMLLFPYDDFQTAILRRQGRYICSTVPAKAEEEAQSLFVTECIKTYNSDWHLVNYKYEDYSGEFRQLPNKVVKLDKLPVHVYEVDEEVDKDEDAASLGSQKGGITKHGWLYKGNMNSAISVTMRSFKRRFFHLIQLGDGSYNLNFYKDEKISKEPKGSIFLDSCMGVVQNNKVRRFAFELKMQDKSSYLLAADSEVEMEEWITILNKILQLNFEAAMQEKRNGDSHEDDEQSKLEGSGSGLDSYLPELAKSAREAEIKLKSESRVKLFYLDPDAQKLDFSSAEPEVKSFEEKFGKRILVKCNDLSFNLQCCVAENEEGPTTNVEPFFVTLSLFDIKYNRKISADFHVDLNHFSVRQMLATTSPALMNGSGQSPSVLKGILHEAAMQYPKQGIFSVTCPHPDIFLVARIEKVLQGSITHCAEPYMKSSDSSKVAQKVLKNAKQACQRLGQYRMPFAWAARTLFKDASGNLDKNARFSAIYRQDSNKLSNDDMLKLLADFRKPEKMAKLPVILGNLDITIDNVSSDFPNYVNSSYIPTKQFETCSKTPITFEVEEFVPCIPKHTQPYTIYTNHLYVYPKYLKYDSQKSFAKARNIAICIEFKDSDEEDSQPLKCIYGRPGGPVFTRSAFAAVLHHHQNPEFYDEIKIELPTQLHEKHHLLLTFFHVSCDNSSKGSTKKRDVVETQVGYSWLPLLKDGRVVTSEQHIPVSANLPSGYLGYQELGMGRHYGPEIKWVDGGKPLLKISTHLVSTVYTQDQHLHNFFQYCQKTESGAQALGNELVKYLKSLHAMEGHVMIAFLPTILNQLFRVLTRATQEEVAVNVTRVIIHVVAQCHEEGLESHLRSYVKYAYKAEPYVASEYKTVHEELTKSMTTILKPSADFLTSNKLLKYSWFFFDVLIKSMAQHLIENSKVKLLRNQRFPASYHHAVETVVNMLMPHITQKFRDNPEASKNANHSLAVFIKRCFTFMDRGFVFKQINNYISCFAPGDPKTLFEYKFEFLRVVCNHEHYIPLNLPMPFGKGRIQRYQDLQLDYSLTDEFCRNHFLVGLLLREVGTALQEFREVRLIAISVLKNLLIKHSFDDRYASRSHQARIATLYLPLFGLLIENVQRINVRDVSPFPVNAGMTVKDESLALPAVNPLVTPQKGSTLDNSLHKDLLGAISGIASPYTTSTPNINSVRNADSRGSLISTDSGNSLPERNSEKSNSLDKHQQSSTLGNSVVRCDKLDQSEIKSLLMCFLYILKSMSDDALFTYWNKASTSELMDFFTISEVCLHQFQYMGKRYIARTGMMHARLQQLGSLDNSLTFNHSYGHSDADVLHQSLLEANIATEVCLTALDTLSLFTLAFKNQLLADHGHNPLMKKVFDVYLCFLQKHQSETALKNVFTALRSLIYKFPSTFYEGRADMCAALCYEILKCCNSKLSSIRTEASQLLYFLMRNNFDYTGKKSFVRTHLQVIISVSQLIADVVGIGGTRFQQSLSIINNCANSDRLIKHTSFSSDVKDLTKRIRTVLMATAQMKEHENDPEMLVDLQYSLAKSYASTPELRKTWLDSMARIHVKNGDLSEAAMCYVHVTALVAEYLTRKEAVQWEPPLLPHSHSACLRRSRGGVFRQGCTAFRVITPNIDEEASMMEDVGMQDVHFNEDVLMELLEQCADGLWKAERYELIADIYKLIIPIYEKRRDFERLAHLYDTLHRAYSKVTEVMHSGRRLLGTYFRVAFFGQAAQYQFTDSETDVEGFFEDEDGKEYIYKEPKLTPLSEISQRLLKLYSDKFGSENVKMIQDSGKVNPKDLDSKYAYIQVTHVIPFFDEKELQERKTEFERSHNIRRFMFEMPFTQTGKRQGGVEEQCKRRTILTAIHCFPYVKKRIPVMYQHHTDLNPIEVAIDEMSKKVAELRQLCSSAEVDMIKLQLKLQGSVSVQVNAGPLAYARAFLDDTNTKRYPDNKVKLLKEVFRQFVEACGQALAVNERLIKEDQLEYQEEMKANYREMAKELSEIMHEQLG
UniProt P51452: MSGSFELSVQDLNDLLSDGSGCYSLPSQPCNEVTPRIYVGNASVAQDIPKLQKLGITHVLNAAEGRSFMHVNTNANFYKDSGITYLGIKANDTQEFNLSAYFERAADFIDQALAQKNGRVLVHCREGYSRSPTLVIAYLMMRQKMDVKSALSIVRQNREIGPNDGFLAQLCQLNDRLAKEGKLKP

These targets were tested with CC[C@@H]1C(=O)N(C)c2cnc(Nc3ccc(C(=O)NC4CCN(C)CC4)cc3OC)nc2N1C1CCCC1 (assay: log2 fold change, soluble protein after heating vs DMSO (PISA); higher = thermal stabilisation; K562 cells, 10 uM, 30 min; active = over 0.2 and 3.5 SD of the protein, either way, in both replicates (recomputed)).
Procedure, shortened: (§1)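 K562 cells at 2×10^6 cells/mL were exposed to 10 μM compound for 30 min, then aliquots were heated for 3 min across 48°C-58°C, pooled, and extracted in PBS containing 0.5% NP-40 at 4°C. The supernatant after 21,000xg for 90 min was taken as soluble protein and measured by TMTpro 16plex LC-MS/MS with channel sums equalised. Thermal stability is reported relative to control samples, with values from duplicates. Fold changes are given on a log2 scale.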

Target | log2 fold change
EBAG9 isoform 2 (UniProt O00559) | inactive: -0.057
DUT (UniProt P33316) | inactive: 0.019
DNPH1 (UniProt O43598) | inactive: -0.031
DPAGT1 (UniProt Q9H3H5) | inactive: -0.047
DPH1 (UniProt Q9BZG8) | inactive: 0.032
DOCK7 (UniProt Q96N67) | inactive: -0.086
DPY19L4 (UniProt Q7Z388) | inactive: 0.117
DPP9 isoform 2 (UniProt Q86TI2) | inactive: 0.02
DPH7 (UniProt Q9BTV6) | inactive: 0.107
EDEM3 (UniProt Q9BZQ6) | inactive: 0.033

The targets below were run with CC[C@@H]1C(=O)N(C)c2cnc(Nc3ccc(C(=O)N[C@H]4CC[C@H](N5CCN(CC6CC6)CC5)CC4)cc3OC)nc2N1C(C)C [volasertib] in the same assay as above.
Procedure, shortened: as §1

Target | log2 fold change
EDEM1 (UniProt Q92611) | inactive: -0.076
EBP (UniProt Q15125) | inactive: -0.038
DYNLL1 (UniProt P63167) | inactive: -0.032
DPH6 (UniProt Q7L8W6) | inactive: -0.191
ECSIT (UniProt Q9BQ95) | inactive: 0.042
DNAJC9 (UniProt Q8WXX5) | inactive: -0.17
DNAJC2 (UniProt Q99543) | inactive: -0.25
ECI1 (UniProt P42126) | inactive: 0.061
DNM1L isoform 6 (UniProt O00429) | inactive: -0.08
DPF2 (UniProt Q92785) | inactive: -0.064
DNAJB4 (UniProt Q9UDY4) | inactive: -0.232
ECHDC1 (UniProt Q9NTX5) | inactive: 0.081
DTD1 (UniProt Q8TEA8) | inactive: 0.024
DR1 (UniProt Q01658) | inactive: -0.023
DPY30 (UniProt Q9C005) | inactive: -0.03
DNAJB6 (UniProt O75190) | inactive: -0.054
DOCK9 isoform 4 (UniProt Q9BZ29) | inactive: -0.063

Target | log2 fold change
DPP7 (UniProt Q9UHL4) | inactive: -0.019
DNASE2 (UniProt O00115) | inactive: -0.064
DUSP3 (UniProt P51452) | inactive: -0.141
DSG2 (UniProt Q14126) | inactive: -0.028
DNAJC17 (UniProt Q9NVM6) | inactive: 0.041
DPH2 (UniProt Q9BQC3) | inactive: -0.033
EBAG9 isoform 2 (UniProt O00559) | inactive: -0.075
DUT (UniProt P33316) | inactive: 0.073
DNPH1 (UniProt O43598) | inactive: 0.053
DPAGT1 (UniProt Q9H3H5) | inactive: -0.016
DPH1 (UniProt Q9BZG8) | inactive: -0.053
DOCK7 (UniProt Q96N67) | inactive: -0.005
DPY19L4 (UniProt Q7Z388) | inactive: 0.052
DPP9 isoform 2 (UniProt Q86TI2) | inactive: 0.034
DPH7 (UniProt Q9BTV6) | inactive: 0.004
EDEM3 (UniProt Q9BZQ6) | inactive: -0.042
